The source of these data is the supplement of paper PMC7666118.

The chains behind the UniProt entries cited, without tags or fusion partners. Where a name states a change or a piece, a line headed by the entry shows the natural chain unless it says otherwise.
UniProt Q9P2Y4: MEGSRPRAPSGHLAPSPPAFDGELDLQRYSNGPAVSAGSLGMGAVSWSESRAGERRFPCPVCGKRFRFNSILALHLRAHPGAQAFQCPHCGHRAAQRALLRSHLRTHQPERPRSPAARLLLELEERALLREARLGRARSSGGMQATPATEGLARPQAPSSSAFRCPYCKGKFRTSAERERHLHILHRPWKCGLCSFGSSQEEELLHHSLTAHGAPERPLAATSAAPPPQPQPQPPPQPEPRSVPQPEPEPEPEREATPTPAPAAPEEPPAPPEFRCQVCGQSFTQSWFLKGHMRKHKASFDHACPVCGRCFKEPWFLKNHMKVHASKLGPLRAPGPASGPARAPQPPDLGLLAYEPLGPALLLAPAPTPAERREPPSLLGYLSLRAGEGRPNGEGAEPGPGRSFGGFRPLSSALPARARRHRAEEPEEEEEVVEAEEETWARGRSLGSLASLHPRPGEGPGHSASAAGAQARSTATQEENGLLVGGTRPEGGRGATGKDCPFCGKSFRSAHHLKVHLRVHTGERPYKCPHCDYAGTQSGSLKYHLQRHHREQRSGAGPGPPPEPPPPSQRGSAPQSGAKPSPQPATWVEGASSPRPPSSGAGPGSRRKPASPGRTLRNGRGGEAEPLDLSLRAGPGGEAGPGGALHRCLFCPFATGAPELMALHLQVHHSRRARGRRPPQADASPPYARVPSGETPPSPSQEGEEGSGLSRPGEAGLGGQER
UniProt P0CG31: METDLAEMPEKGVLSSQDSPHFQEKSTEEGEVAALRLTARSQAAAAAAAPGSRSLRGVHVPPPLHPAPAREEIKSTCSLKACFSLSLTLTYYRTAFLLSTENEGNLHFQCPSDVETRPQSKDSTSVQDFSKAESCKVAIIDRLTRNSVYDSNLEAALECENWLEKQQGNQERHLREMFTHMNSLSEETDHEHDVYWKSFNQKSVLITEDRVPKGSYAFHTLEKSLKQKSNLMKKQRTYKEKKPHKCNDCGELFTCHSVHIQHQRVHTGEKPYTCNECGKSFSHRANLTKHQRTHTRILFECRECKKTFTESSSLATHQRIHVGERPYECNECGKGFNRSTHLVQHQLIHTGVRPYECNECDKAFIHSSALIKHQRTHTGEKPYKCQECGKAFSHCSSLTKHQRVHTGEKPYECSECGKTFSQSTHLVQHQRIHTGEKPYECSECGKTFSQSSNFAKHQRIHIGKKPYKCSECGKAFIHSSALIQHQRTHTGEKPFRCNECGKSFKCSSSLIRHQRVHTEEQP
UniProt O60281: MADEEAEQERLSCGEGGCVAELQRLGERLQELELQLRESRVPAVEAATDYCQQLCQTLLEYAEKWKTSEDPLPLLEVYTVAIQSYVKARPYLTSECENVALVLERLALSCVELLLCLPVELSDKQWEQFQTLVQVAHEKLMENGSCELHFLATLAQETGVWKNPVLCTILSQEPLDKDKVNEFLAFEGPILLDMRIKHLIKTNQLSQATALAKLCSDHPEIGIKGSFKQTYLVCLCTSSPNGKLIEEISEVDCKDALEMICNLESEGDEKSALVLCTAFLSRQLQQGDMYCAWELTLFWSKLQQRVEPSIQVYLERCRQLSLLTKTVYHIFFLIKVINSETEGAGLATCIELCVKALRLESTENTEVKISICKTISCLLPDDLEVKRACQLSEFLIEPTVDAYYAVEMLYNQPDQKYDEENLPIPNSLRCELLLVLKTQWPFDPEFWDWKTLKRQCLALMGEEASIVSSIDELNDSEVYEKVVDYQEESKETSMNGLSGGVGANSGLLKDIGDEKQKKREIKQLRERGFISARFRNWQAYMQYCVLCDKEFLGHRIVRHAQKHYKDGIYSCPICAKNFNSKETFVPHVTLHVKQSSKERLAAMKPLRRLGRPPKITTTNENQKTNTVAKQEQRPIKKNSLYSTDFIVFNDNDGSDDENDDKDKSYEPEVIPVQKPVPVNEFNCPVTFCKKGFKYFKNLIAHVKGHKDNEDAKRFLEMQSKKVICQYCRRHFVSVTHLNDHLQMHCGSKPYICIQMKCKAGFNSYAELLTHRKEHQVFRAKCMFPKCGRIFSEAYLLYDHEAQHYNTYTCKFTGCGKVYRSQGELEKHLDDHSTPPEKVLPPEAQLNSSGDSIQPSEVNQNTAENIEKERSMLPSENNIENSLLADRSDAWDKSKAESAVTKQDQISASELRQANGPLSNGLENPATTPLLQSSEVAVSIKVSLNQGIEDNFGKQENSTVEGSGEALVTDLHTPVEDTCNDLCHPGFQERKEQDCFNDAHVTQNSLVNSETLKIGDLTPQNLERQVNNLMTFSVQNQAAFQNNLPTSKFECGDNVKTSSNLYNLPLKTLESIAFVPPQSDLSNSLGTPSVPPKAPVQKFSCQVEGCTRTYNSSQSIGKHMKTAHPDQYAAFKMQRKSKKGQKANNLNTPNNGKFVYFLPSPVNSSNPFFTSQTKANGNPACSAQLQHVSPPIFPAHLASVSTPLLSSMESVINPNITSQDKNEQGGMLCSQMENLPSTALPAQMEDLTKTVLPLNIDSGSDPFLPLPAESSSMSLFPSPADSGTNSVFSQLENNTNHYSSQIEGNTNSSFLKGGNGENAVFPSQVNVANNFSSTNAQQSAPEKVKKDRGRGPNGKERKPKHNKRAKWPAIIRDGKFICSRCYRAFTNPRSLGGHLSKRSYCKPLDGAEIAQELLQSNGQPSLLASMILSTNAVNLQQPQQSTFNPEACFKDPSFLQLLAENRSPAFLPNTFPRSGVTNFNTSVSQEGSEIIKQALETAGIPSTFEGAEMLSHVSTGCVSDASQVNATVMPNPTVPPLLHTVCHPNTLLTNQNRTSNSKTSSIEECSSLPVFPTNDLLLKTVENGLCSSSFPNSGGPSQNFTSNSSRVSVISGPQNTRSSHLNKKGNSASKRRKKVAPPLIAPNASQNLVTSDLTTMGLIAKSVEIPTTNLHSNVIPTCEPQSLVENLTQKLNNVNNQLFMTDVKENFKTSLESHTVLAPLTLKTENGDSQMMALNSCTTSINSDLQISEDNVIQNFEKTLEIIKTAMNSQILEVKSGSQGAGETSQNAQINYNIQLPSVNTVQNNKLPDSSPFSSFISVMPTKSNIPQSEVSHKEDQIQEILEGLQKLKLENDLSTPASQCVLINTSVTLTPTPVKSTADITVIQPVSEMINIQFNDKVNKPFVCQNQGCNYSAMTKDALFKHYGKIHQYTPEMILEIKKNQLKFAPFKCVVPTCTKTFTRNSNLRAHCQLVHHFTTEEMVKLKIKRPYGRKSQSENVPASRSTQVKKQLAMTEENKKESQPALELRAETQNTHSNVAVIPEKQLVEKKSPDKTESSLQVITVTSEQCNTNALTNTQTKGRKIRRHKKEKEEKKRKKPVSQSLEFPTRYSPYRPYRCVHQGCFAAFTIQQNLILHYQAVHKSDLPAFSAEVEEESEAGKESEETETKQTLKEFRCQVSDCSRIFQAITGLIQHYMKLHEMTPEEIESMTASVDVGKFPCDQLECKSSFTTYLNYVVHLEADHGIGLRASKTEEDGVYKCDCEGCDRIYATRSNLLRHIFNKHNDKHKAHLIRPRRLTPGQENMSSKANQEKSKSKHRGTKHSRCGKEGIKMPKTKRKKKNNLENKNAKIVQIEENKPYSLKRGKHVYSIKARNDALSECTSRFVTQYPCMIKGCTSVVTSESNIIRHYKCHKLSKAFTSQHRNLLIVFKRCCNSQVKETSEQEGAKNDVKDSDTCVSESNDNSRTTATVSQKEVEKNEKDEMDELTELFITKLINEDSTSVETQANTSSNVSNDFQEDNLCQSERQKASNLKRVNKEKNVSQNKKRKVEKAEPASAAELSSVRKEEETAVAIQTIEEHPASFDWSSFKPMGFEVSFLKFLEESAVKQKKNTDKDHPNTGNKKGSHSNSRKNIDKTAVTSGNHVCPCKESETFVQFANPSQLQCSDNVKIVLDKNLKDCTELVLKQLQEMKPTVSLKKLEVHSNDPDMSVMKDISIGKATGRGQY
UniProt Q9H582: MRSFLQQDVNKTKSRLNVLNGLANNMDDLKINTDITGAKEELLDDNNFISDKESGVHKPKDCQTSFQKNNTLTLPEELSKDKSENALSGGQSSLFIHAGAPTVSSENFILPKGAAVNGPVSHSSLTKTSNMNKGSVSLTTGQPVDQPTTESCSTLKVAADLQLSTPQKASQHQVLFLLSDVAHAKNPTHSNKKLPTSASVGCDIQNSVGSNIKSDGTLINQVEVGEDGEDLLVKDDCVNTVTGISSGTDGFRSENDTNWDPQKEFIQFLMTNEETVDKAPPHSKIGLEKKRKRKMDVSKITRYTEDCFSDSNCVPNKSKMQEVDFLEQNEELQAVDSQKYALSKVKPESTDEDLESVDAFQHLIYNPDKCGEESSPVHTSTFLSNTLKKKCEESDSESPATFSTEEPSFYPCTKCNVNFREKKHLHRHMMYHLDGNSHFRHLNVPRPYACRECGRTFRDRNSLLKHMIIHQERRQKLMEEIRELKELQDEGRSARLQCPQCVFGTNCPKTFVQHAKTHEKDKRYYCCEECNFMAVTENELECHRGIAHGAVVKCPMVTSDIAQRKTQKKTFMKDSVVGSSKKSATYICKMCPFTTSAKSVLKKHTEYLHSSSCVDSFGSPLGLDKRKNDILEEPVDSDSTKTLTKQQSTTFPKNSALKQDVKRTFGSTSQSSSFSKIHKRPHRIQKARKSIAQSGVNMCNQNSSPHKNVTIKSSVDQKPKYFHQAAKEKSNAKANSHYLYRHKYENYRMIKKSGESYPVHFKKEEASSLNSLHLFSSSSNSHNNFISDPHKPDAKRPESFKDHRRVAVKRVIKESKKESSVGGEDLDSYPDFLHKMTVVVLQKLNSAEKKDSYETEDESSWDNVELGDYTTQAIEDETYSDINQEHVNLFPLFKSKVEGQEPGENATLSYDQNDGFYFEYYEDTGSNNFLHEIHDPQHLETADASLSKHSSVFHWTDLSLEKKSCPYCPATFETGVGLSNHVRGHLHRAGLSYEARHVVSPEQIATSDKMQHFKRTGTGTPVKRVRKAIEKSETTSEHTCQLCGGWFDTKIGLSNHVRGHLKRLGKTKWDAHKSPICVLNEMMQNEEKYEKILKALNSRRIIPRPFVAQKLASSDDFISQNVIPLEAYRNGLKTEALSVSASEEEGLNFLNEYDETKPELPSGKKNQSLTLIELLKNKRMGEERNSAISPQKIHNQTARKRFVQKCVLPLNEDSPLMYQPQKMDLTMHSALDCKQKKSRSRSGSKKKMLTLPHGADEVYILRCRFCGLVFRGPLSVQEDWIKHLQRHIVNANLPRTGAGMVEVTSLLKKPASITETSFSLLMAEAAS
UniProt Q9ULU4: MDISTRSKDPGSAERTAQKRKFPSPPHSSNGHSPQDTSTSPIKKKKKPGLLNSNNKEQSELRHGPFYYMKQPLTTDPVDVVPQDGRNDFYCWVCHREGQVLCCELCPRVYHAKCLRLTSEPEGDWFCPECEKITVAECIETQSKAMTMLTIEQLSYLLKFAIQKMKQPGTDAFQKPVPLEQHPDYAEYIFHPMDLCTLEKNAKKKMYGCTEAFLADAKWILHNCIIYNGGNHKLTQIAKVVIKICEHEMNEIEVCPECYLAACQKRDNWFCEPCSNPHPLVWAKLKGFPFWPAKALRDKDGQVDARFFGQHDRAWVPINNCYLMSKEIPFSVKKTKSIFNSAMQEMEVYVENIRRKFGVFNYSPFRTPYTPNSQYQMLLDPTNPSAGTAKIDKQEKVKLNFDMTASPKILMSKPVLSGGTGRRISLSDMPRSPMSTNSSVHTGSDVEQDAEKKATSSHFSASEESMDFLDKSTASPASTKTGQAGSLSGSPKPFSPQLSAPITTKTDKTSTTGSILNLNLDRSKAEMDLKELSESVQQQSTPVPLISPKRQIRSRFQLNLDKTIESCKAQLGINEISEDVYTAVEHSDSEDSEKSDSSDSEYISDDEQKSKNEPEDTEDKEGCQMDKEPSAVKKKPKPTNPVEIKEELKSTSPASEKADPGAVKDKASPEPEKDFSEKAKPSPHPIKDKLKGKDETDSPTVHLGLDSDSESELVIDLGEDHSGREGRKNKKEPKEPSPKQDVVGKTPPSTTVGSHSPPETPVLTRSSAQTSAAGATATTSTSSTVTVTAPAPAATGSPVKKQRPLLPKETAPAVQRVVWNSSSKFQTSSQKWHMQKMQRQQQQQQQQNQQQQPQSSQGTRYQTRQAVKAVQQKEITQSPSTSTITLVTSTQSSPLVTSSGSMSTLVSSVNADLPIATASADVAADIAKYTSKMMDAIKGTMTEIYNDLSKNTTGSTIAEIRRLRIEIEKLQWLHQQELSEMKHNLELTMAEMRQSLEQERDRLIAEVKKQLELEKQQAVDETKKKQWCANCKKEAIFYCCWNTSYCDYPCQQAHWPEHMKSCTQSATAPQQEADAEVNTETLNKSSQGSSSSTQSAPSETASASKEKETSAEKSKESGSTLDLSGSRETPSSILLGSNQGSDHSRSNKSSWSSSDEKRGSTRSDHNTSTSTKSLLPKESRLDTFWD

The other results are listed elsewhere or left out.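 How the source made its calls: active = dose-dependent thermal stabilisation significant by F-test of dose-response against flat model at 10% FDR; inactive = not significant.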

Compound in the assay: Nc1nc2c(ncn2[C@@H]2O[C@H](COP(=O)(O)OP(=O)(O)OP(=O)(O)O)[C@@H](O)[C@H]2O)c(=O)[nH]1
Briefly: dose-dependent thermal stabilisation call (2D-TPP, DLPTP, 10% FDR) (binary (1 = stabilised)); higher = stabilised by the compound. Conditions: system: Jurkat gel-filtered lysate; concentration range 1-500 µM. As to the method:
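2D thermal proteome profiling in gel-filtered Jurkat E6.1 lysate (2 mg/ml) treated with NaGTP (0, 1, 10, 100, 500 uM) for 10 min at room temperature, then heated 3 min at one of 12 temperatures (42-63.9 C). Soluble protein was quantified by TMT10 MS. The value is the DLPTP call of the paper: dose-dependent thermal stabilisation over all temperatures at 10% FDR (F-test of a dose-response against a flat model); one experiment, one call per tested protein.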
For ZNF217 (UniProt O75362), the “dose-dependent thermal stabilisation call” value is inactive: 0.
The result for ZNF22 (UniProt P17026) reads active: 1; that for ZNF609 (UniProt O15014), inactive: 0.
As for ZNF696 (UniProt Q9H7X3), the figure is inactive: 0.
Consider ZYG11B (UniProt Q9C0D3), for which the “dose-dependent thermal stabilisation call” value was inactive: 0.
The result for ZNF277 (UniProt Q9NRM2) reads inactive: 0; that for ZNF638 (UniProt Q14966), inactive: 0.
The result for ZNF319 (UniProt Q9P2F9) reads inactive: 0.
The result for ZNF24 (UniProt P17028) reads inactive: 0.
With ZNRF1 (UniProt Q8ND25), the “dose-dependent thermal stabilisation call” value is inactive: 0.
As for ZMYM3 (UniProt Q14202), the figure is inactive: 0; as for ZNF507 (UniProt Q8TCN5), inactive: 0; as for ZW10 (UniProt O43264), inactive: 0.
As for ZNF511 (UniProt Q8NB15), the figure is inactive: 0; as for ZSCAN26 (UniProt Q16670), inactive: 0.
Consider ZNF318 (UniProt Q5VUA4), for which the “dose-dependent thermal stabilisation call” value is inactive: 0.
As for ZNF219 (UniProt Q9P2Y4), the figure is inactive: 0; as for ZNF286B (UniProt P0CG31), inactive: 0.
Take ZMYM2 (UniProt Q9UBW7): the “dose-dependent thermal stabilisation call” value is inactive: 0.
The result for ZNF8 (UniProt P17098) reads inactive: 0.
As for ZKSCAN4 (UniProt Q969J2), the figure is inactive: 0.
The result for ZNF292 (UniProt O60281) reads inactive: 0; that for ZNF143 (UniProt P52747), inactive: 0.
In the case of ZNF131 (UniProt P52739), the “dose-dependent thermal stabilisation call” value was inactive: 0.
The result for ZNF646 (UniProt O15015) reads inactive: 0; that for ZKSCAN1 (UniProt P17029), inactive: 0.
As to ZNF207 (UniProt O43670), the “dose-dependent thermal stabilisation call” value was inactive: 0.
As to ZFP91 (UniProt Q96JP5), the “dose-dependent thermal stabilisation call” value is inactive: 0.
The result for ZNF644 (UniProt Q9H582) reads inactive: 0; that for ZMYND8 (UniProt Q9ULU4), inactive: 0; that for ZNF330 (UniProt Q9Y3S2), inactive: 0.
The result for ZNF830 (UniProt Q96NB3) reads inactive: 0; that for ZNF326 (UniProt Q5BKZ1), inactive: 0; that for ZMYM4 (UniProt Q5VZL5), inactive: 0.
As for ZNF346 (UniProt Q9UL40), the figure is inactive: 0; as for ZMYM1 (UniProt Q5SVZ6), inactive: 0; as for ZFPL1 (UniProt O95159), inactive: 0.
Turning to ZNF106 (UniProt Q9H2Y7), the “dose-dependent thermal stabilisation call” value was inactive: 0.
As for ZNF787 (UniProt Q6DD87), the figure is inactive: 0.
As for ZNF444 (UniProt Q8N0Y2), the figure is inactive: 0.
